# US9125388B2, “Biological control” (Isis Innovation Limited, priority 1999, dated 2015)
# At least one compound was matched to its structure with a doubt left.
# Tests used:
# bnk-tTa × tRe-Nipp1Dm = experiment: Tc-repressible lethality using an embryo-specific promoter (Table 2), adult progeny by sex; type: in vivo, Drosophila melanogaster
# Source text: Flies were reared on standard yeast/cornmeal/agar food with a yeast concentration of 45-50 gl^−1. Tc-containing food was made to the same recipe with the addition of tetracycline hydrochloride (Sigma-Aldrich) solution to the appropriate final concentration.
# As ectopic Ras64B^V12 apparently lacks embryonic toxicity under the conditions we are using, we placed a different toxic gene under the control of tRe. We chose to use Nipp1Dm, a Drosophila homolog of mammalian NIPP-1, a nuclear inhibitor of protein phosphatase type 1 (Beullens et al., (1992), J. Biol. Chem. 267, 16538-16544; Van Eynde et al., (1995), J Biol Chem 270, 28068-74). NIPP1 has several advantages as a “killer gene” in this system. Flies carrying homozygous insertions of bnk-tTa or tRe-Nipp1 were crossed to each other. […] Furthermore, F1 survival was not affected by the presence or absence of Tc in the media on which the F1 were raised. We have therefore constructed an efficient dominant lethal genetic system repressible by parental dietary Tc.
# Males homozygous for bnk-tTa were mated with females homozygous for either tRe-Ras64B^V12 or tRe-Nipp1Dm. These flies were raised on media lacking Tc, but before mating were placed on food containing various concentrations of Tc. They were allowed to lay embryos on this food for 9 days, and then the parents were removed. Their adult progeny of each sex were counted.
# bnk-tTA/tRe-lacZ = experiment: Embryonic reporter expression, β-galactosidase staining; type: in vivo, Drosophila melanogaster
compound,measurement,setting,value
"CN(C)[C@@H]1C(O)=C(C(N)=O)C(=O)[C@@]2(O)C(O)=C3C(=O)c4c(O)cccc4[C@@](C)(O)[C@H]3C[C@@H]12 [Tetracycline, tetracycline]",F1 progeny viability,bnk-tTa × tRe-Nipp1Dm; parent flies fed on media supplemented with Tc,produced viable F1 progeny
same,F1 survival,bnk-tTa × tRe-Nipp1Dm; presence or absence of Tc in the media on which the F1 were raised,not affected
same,repression of the reporter genes,bnk-tTA/tRe-lacZ; parents on media containing 1 μg/ml Tc for at least two days prior to embryo collection,Effective repression
same,effect on reporter gene expression,bnk-tTA/tRe-lacZ; seeding embryos onto media containing Tc,did not appear to affect reporter gene expression
